From the supplement of paper PMC12819154, “High-throughput peptide-centric local stability assay extends protein–ligand identification to membrane proteins, tissues and bacteria” (Nature Structural & Molecular Biology, 2025)
The list shows a part of the results. Small differences around the control level are noise.

Protein sequences, listed by entry. Tags and fused reporters are not part of them. Lines headed by an entry give the natural chain unless they say otherwise; changes in a name come on top.
UniProt Q9CZH7: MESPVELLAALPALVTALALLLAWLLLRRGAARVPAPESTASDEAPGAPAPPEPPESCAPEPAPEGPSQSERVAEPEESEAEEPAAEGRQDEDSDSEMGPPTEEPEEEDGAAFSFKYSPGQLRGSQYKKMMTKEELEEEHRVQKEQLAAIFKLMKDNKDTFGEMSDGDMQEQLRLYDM
UniProt Q9D735: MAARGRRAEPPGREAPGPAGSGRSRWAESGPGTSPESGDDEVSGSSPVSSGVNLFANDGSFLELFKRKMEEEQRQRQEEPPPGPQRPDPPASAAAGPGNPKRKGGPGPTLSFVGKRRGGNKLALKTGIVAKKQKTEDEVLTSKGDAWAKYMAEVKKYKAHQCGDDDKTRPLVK
UniProt Q9DB77: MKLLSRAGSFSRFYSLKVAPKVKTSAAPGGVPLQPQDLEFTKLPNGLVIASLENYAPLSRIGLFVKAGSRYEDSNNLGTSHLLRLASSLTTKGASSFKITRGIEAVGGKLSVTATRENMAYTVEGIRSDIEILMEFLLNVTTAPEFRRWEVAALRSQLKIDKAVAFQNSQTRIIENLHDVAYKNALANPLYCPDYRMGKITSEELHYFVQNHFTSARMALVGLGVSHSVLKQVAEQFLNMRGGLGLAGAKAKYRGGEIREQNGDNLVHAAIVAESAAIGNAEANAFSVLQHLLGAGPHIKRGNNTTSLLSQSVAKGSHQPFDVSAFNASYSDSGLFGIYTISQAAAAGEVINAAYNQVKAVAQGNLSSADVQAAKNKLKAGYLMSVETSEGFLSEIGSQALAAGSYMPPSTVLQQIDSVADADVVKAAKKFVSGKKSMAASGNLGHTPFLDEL
UniProt Q9CZD3: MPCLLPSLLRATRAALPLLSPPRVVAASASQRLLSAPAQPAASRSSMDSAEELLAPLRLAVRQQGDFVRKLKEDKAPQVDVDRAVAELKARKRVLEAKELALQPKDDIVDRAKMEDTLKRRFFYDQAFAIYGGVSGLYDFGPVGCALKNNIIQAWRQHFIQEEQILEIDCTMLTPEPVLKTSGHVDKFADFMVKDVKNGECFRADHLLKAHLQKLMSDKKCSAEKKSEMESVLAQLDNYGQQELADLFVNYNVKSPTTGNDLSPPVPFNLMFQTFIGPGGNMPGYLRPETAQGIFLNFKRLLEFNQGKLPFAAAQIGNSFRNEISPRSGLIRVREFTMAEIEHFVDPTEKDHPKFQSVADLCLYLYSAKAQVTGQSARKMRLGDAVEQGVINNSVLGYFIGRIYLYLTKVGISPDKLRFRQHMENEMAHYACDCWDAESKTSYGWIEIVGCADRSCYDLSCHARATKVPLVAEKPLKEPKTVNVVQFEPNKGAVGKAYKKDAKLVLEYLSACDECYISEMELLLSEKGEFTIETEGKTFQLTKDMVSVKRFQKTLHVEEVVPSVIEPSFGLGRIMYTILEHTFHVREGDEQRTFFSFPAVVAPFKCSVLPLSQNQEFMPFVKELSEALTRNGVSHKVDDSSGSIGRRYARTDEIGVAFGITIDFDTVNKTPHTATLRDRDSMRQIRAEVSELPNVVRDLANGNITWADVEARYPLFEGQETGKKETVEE
UniProt Q9D1R1: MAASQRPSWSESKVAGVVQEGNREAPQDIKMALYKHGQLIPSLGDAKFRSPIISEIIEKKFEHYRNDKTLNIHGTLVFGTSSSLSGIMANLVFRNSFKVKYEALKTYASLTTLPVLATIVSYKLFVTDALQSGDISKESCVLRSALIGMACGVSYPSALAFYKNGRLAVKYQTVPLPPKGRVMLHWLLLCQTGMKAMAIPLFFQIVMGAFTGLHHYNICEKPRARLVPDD
UniProt Q9CZL5: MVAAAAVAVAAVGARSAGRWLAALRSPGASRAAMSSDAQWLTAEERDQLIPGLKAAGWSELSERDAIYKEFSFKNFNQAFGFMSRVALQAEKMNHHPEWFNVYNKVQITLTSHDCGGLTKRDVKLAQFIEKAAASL
UniProt Q9DB05: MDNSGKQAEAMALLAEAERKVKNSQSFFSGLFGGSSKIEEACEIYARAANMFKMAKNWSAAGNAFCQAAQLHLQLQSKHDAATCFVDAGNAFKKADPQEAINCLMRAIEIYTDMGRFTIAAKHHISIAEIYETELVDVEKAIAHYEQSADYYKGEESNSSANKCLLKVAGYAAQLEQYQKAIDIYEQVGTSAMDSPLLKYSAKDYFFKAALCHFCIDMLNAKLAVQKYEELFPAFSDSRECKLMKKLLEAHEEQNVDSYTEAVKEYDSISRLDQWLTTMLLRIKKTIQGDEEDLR
UniProt Q9D6J6, whole entry: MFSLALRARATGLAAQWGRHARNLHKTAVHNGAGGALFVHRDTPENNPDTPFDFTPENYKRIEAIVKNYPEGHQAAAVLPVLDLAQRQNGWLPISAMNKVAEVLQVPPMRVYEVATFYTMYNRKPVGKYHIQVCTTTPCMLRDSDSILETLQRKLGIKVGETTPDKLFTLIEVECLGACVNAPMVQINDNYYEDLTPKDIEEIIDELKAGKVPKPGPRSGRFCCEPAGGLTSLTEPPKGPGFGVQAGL
UniProt Q9D711: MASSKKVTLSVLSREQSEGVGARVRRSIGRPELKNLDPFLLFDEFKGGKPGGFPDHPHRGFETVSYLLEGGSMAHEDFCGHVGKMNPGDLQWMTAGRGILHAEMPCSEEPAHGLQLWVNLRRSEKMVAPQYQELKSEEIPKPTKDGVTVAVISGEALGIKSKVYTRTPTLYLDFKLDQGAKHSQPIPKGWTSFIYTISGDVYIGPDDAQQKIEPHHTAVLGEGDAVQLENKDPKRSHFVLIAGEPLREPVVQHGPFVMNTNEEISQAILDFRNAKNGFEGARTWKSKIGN
UniProt Q9DBI0: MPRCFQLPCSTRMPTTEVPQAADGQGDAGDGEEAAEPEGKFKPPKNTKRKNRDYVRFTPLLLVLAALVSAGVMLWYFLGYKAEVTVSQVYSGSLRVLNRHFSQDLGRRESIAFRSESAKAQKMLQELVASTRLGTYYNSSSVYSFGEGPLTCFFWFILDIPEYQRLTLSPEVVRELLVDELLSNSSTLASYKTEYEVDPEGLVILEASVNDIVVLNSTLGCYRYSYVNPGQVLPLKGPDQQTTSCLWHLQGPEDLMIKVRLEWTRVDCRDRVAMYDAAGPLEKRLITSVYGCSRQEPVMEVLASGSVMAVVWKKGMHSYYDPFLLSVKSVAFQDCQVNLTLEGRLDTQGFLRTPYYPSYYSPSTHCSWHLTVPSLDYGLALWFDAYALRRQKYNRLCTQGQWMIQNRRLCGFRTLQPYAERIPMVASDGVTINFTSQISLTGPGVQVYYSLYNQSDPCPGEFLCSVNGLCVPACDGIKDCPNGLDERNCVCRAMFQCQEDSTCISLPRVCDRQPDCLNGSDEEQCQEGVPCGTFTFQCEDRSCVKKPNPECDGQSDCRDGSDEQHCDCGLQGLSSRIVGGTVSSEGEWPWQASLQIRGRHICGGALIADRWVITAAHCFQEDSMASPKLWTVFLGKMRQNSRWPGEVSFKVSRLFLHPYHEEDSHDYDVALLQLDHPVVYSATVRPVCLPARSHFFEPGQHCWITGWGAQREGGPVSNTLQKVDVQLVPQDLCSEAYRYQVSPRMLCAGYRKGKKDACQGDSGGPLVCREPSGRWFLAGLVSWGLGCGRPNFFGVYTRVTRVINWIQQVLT
UniProt Q9D6K7: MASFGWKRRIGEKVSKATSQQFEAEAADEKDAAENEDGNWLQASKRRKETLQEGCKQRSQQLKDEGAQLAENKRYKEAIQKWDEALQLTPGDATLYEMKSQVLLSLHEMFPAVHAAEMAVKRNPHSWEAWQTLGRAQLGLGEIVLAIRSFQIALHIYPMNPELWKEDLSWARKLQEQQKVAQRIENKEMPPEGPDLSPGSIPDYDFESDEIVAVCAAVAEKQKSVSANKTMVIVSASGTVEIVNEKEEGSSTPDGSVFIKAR
UniProt Q9DB00: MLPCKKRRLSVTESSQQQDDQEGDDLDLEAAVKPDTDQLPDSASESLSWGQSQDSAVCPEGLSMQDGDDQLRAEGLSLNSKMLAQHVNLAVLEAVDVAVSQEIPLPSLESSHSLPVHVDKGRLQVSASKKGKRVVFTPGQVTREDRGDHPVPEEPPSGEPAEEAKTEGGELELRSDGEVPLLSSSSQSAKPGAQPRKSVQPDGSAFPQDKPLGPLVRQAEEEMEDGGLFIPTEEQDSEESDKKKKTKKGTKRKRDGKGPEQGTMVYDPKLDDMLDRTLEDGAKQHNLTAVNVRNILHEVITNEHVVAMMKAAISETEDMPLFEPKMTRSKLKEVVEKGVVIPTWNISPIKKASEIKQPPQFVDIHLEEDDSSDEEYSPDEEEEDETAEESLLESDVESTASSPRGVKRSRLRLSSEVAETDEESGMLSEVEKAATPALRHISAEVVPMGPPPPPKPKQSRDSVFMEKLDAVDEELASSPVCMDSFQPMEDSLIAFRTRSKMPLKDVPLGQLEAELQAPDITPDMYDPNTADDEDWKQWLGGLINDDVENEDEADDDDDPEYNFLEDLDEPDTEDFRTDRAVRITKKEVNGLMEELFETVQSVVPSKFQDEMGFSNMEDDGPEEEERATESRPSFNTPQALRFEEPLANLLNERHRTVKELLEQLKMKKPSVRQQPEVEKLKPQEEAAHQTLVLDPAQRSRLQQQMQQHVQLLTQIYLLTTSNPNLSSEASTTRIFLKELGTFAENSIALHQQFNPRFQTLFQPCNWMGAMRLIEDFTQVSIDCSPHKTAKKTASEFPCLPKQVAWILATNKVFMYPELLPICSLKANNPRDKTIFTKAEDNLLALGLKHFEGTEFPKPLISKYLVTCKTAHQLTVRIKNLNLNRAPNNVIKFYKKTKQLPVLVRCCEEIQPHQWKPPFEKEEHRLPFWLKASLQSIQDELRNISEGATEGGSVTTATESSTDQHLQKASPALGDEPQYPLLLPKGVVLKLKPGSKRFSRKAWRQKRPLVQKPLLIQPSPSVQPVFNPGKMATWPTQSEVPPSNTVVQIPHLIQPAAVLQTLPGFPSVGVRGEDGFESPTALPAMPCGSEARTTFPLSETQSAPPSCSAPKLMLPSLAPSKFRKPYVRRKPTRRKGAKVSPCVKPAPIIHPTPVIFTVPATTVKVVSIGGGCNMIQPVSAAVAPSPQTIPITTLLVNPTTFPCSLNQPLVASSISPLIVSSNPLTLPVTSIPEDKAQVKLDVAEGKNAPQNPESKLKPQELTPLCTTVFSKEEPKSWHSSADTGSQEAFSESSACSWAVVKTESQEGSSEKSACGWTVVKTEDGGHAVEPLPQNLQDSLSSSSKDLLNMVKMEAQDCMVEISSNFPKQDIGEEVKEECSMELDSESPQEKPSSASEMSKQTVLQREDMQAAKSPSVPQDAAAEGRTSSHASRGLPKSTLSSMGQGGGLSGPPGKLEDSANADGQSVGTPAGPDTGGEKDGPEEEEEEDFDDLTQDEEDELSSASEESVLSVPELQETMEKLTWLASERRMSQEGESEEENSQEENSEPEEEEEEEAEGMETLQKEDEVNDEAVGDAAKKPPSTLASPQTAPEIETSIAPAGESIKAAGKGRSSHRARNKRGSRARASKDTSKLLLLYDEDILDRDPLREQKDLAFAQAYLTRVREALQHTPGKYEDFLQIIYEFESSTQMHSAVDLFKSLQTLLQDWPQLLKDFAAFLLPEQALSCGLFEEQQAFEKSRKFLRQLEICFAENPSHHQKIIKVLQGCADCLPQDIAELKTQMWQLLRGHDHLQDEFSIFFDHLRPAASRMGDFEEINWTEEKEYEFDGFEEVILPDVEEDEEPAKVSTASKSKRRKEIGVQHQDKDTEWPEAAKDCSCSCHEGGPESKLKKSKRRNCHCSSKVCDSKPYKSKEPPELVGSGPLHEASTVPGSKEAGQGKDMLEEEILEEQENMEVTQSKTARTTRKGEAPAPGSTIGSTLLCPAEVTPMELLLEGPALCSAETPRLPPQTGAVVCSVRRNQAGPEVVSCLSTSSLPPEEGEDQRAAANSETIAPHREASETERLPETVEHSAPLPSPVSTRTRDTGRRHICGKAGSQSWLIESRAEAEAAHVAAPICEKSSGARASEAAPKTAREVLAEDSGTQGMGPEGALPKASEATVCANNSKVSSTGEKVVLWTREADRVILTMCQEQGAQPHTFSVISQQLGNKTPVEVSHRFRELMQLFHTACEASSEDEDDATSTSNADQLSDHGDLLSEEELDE
UniProt Q9DB26: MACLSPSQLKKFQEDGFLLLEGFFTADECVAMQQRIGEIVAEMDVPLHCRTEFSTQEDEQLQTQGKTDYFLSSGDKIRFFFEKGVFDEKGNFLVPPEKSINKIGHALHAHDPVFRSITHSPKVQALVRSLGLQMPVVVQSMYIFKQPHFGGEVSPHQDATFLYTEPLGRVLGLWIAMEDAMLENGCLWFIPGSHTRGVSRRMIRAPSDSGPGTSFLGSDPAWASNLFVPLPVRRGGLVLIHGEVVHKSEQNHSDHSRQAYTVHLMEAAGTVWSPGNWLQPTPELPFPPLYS
UniProt Q9D0B5: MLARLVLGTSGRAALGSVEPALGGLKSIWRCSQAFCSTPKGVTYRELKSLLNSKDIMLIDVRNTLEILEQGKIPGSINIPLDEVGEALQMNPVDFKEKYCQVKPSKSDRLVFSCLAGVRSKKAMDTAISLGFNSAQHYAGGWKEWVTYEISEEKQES

compound: CN[C@@H]1C[C@H]2O[C@@](C)([C@@H]1OC)n1c3ccccc3c3c4c(c5c6ccccc6n2c5c31)C(=O)NC4 [staurosporine]; experiment: log2 fold change of pooled soluble protein (PISA), ligand vs vehicle (log2 ratio); higher = more thermally stabilized; conditions: ligand concentration: 20 uM; assay format: PISA pool 52.9/55.5/58.6 C

Row | Target | log2 fold change of pooled soluble protein
1 | UniProt Q9D358 | -0.0933
2 | UniProt Q9D2G2 | -0.0169
3 | UniProt Q9CZ04 | -0.0713
4 | UniProt Q9D0B6 | -0.155
5 | UniProt Q9D920 | -0.0765
6 | UniProt Q9CZH7 | -0.263
7 | UniProt Q9D1C3 | -0.324
8 | UniProt Q9D6K8 | -0.0043
9 | UniProt Q9D1H6 | 0.0816
10 | UniProt Q9D3B1 | -0.0146
11 | UniProt Q9D735 | 0.00726
12 | UniProt Q9DB77 | 0.0908
13 | UniProt Q9DBG3 | 0.121
14 | UniProt Q9D8X1 | 0.0447
15 | UniProt Q9D154 | -0.114
16 | UniProt Q9CZD3 | -0.099
17 | UniProt Q9D1R1 | -0.105
18 | UniProt Q9DBK0 | -0.0721
19 | UniProt Q9CY27 | 0.116

10 entries from above, with tabs.
Row	Target	log2 fold change of pooled soluble protein
1	UniProt Q9D358	-0.0933
3	UniProt Q9CZ04	-0.0713
7	UniProt Q9D1C3	-0.324
8	UniProt Q9D6K8	-0.0043
9	UniProt Q9D1H6	0.0816
11	UniProt Q9D735	0.00726
12	UniProt Q9DB77	0.0908
13	UniProt Q9DBG3	0.121
17	UniProt Q9D1R1	-0.105
19	UniProt Q9CY27	0.116

More records.

Row | Target | log2 fold change of pooled soluble protein
20 | UniProt Q9CZL5 | 0.0999
21 | UniProt Q9D0B8 | -0.0281
22 | UniProt Q9D6K5 | 0.0409
23 | UniProt Q9DB05 | 0.113
24 | UniProt Q9D6J6 | 0.096
25 | UniProt Q9D711 | -0.0324
26 | UniProt Q9D6N5 | 0.0525
27 | UniProt Q9D924 | -0.0209
28 | UniProt Q9D074 | 0.00318
29 | UniProt Q9DBI0 | 0.11
30 | UniProt Q9D1M7 | -0.0812
31 | UniProt Q9DB42 | -0.0239
32 | UniProt Q9D6K7 | -0.15
33 | UniProt Q9DB00 | 0.0149
34 | UniProt Q9DB26 | 0.113
35 | UniProt Q9DAW6 | 0.0699
36 | UniProt Q9D0B5 | -0.059
37 | UniProt Q9CXS4 | -0.0956
